Assay results taken from the supplement of paper PMC10849652.
The other results are listed elsewhere or left out.

Chains of the proteins cited; added tags and fusions are not shown. Lines headed by an entry give the natural chain unless they say otherwise; changes in a name come on top.
UniProt Q7Z4S6: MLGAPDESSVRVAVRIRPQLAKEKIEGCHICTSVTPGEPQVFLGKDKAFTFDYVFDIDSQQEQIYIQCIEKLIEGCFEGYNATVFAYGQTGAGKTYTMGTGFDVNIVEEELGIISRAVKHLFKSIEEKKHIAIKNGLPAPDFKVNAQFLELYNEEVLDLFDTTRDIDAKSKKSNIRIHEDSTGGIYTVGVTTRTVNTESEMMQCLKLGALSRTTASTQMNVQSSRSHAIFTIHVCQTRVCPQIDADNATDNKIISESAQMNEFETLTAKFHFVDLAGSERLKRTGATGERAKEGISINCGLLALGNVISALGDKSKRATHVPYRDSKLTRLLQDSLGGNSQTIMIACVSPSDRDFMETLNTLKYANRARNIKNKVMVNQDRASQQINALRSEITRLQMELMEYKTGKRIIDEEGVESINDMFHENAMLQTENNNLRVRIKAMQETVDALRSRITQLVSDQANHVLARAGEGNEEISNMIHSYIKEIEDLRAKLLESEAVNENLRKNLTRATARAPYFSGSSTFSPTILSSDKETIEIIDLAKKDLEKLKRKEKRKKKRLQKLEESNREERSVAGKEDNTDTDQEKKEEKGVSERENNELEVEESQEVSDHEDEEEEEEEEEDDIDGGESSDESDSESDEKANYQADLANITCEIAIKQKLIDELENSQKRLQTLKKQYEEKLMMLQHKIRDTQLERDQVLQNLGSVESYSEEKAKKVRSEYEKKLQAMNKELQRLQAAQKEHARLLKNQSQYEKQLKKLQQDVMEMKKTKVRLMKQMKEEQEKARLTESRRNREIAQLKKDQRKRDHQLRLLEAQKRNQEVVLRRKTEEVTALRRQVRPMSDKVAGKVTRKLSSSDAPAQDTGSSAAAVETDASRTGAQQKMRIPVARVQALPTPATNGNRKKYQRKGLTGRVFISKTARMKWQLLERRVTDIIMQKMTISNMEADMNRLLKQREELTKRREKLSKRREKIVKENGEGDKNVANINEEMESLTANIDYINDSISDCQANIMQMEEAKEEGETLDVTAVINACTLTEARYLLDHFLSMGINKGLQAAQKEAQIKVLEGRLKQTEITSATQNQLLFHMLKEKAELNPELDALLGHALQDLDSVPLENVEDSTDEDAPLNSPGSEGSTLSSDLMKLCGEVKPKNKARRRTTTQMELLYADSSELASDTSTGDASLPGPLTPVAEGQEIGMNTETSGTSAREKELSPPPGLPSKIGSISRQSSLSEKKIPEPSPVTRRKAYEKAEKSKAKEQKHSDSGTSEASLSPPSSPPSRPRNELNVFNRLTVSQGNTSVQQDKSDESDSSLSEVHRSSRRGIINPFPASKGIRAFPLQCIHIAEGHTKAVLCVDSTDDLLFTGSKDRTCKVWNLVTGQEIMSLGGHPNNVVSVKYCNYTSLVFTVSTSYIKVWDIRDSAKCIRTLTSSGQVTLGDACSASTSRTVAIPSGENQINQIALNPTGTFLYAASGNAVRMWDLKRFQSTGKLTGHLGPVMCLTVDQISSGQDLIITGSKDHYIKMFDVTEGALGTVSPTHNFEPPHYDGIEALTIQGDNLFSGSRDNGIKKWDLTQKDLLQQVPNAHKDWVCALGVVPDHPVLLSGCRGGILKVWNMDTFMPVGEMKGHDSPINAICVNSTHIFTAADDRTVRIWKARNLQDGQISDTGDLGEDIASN
UniProt Q02241: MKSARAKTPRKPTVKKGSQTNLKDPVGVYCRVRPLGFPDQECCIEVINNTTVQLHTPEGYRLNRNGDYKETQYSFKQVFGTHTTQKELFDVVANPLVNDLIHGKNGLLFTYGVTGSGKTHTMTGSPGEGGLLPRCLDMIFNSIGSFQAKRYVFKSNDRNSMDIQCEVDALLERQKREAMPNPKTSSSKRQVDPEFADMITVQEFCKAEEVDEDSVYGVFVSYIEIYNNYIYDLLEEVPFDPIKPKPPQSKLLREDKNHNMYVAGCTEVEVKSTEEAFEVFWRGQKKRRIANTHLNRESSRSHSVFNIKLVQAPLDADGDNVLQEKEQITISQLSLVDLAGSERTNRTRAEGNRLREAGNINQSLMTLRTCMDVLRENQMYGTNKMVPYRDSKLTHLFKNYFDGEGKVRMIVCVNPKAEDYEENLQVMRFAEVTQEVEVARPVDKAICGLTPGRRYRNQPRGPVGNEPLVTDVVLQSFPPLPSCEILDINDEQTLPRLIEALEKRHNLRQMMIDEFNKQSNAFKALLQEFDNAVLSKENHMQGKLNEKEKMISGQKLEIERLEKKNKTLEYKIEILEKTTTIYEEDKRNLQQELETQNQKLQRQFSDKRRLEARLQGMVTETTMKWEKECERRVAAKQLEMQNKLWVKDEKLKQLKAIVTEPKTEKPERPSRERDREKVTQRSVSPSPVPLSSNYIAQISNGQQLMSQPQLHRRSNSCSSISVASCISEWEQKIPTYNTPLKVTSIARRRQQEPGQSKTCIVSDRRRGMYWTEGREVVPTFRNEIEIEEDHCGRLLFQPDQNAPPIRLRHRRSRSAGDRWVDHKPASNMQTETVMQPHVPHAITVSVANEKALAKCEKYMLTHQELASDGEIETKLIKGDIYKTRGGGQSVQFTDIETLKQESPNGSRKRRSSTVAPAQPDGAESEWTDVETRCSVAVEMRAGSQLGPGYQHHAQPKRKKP
UniProt Q9NSK0: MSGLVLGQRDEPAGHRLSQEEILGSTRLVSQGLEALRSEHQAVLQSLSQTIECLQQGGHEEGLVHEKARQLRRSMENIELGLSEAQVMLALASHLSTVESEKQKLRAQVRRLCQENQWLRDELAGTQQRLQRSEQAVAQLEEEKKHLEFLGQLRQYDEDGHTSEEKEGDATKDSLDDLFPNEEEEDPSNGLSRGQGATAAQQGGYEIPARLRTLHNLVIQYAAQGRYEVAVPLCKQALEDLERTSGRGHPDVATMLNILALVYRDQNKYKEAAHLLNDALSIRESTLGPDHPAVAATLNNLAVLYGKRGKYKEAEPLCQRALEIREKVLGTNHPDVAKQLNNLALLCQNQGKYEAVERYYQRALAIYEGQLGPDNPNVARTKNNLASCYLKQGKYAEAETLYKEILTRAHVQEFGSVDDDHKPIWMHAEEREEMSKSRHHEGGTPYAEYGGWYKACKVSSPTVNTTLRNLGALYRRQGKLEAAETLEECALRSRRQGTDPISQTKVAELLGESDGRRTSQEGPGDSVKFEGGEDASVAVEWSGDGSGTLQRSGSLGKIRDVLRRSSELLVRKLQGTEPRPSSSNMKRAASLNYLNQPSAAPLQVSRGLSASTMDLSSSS
UniProt P50053: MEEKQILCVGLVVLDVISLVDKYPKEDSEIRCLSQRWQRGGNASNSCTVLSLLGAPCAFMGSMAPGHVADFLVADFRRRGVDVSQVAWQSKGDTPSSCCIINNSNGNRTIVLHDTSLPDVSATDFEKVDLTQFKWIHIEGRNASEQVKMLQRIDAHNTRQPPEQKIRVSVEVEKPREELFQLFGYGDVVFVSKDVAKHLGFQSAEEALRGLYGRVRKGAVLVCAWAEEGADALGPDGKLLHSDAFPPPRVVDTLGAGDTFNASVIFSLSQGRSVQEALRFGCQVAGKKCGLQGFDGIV
UniProt Q9Y664: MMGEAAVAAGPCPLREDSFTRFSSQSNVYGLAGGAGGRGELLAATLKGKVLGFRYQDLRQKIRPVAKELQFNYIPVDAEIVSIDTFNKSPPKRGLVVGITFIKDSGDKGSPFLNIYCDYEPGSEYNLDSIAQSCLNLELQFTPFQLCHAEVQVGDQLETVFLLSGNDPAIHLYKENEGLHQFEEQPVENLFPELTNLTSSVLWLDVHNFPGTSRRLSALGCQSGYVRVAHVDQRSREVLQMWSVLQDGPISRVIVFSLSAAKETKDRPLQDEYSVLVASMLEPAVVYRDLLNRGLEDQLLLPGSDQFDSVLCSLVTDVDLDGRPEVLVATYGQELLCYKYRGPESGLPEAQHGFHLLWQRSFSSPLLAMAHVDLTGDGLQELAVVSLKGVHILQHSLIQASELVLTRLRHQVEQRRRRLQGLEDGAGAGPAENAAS
UniProt A8MWY0: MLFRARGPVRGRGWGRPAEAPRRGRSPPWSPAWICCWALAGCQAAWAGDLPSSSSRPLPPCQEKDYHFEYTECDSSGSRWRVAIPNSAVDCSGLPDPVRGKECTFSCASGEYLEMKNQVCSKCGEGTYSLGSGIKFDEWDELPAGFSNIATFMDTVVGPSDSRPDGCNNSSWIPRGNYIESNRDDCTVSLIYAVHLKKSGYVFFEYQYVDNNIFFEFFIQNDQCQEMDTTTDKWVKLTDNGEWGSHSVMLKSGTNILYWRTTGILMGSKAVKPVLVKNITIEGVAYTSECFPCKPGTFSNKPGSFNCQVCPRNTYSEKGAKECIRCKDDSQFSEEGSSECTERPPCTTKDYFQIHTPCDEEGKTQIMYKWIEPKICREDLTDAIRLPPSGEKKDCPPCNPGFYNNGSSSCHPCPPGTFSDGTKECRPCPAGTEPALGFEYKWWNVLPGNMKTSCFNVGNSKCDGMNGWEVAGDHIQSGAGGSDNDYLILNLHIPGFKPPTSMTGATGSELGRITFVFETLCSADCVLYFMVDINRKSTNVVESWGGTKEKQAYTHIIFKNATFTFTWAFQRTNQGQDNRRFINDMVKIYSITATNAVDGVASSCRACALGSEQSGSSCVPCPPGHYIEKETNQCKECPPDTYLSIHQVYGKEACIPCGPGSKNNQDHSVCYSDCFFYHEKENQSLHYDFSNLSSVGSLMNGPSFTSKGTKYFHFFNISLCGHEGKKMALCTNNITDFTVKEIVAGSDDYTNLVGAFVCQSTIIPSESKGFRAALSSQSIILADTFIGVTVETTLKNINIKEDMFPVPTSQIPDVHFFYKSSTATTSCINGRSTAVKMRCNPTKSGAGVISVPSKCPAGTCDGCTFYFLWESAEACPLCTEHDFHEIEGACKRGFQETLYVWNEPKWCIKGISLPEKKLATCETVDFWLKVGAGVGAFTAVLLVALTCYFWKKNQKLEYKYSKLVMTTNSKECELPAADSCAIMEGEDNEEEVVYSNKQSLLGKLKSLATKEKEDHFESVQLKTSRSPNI
UniProt Q9UHA4, whole entry, looked up: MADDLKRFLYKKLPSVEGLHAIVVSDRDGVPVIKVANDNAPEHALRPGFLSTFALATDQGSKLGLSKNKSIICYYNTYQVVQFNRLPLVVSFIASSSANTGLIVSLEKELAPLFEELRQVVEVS
UniProt Q9NS87: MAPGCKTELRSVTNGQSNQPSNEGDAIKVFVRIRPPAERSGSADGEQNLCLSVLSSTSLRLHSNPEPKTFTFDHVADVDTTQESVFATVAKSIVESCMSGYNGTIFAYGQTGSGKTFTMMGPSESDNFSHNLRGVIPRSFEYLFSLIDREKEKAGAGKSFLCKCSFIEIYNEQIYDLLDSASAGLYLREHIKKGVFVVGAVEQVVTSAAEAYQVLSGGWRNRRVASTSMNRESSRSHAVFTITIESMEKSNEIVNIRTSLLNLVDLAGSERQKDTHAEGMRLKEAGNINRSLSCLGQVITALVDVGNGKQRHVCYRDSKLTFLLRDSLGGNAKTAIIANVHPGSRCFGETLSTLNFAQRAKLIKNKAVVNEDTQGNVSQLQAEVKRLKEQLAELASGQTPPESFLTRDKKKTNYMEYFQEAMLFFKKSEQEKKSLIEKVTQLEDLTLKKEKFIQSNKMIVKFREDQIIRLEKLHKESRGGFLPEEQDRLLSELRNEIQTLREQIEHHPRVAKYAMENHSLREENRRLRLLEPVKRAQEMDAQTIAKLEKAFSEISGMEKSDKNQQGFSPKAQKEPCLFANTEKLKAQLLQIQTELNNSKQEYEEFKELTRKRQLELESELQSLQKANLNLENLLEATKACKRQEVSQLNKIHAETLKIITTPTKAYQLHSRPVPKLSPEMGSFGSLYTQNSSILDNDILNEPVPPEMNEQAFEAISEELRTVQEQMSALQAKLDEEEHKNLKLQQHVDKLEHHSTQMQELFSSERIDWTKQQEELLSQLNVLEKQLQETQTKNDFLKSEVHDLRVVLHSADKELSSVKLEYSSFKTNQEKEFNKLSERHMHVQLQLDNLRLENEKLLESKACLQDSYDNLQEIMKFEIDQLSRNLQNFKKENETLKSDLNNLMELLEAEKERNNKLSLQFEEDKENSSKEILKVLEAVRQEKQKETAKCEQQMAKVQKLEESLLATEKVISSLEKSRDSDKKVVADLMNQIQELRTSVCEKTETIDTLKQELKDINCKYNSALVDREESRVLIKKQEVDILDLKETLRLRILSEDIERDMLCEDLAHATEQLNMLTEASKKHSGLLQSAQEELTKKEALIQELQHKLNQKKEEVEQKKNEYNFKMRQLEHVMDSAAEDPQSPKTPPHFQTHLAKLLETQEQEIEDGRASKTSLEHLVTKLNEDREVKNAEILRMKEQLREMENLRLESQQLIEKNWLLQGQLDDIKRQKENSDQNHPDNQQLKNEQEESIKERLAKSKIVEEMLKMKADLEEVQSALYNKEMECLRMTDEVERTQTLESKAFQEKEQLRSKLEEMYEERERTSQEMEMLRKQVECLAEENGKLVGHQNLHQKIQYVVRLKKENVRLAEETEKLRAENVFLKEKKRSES

Compound: C[C@@H](Oc1cc(-c2cnn(C3CCNCC3)c2)cnc1N)c1c(Cl)ccc(F)c1Cl [crizotinib]
Test: log2 fold change, soluble protein after heating vs DMSO (PISA); higher = thermal stabilisation; K562 lysate, 10 uM; active = over 0.2 and 3.5 SD of the protein, either way, in both replicates (recomputed)
How it was run: (§1)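 Dounce homogenisation of K562 pellets in PBS pH 7.4 with 1 mM MgCl2 produced a crude extract, used at 1 mg/mL protein. Exposure to 10 μM compound lasted 30 min, and aliquots were then heated for 3 min across 48°C-58°C, pooled and brought to 0.5% NP-40 at 4°C. The supernatant after 21,000xg for 90 min was quantified by TMTpro 16plex LC-MS/MS with channel sums equalised. Duplicate values are given as log-two fold change in thermal stability relative to solvent controls.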

Row | Target | log2 fold change
1 | KIF4B (UniProt Q2VIQ3) | inactive: -0.02
2 | KIF21A isoform 5 (UniProt Q7Z4S6) | inactive: -0.021
3 | KIF23 isoform 2 (UniProt Q02241) | inactive: -0.002
4 | KIF5A (UniProt Q12840) | inactive: 0.014
5 | KIF11 (UniProt P52732) | inactive: 0.001
6 | KNOP1 (UniProt Q1ED39) | inactive: -0.068
7 | KIAA0100 (UniProt Q14667) | inactive: -0.021
8 | KLHL36 (UniProt Q8N4N3) | inactive: 0.021
9 | KPNA2 (UniProt P52292) | inactive: -0.063
10 | LARP1 (UniProt Q6PKG0) | inactive: 0.013
11 | KYAT1 (UniProt Q16773) | inactive: -0.028
12 | KLHL20 (UniProt Q9Y2M5) | inactive: -0.029
13 | LAMP2 (UniProt P13473) | inactive: 0.04
14 | KIF4A (UniProt O95239) | inactive: -0.043
15 | KNSTRN (UniProt Q9Y448) | inactive: 0.029
16 | KLC4 isoform 3 (UniProt Q9NSK0) | inactive: -0.027
17 | KHK isoform 2 (UniProt P50053) | inactive: -0.032
18 | KLF16 (UniProt Q9BXK1) | inactive: -0.006
19 | KPTN (UniProt Q9Y664) | inactive: -0.054
20 | KIAA0319L (UniProt Q8IZA0) | inactive: 0.077

Row | Target | log2 fold change
21 | KIF13A isoform 4 (UniProt Q9H1H9) | inactive: -0.001
22 | KIAA1324L (UniProt A8MWY0) | inactive: -0.015
23 | KMT2D isoform 3 (UniProt O14686) | inactive: 0.002
24 | KNTC1 (UniProt P50748) | inactive: -0.098
25 | KIN (UniProt O60870) | inactive: -0.083
26 | KIAA1522 isoform 2 (UniProt Q9P206) | inactive: -0.01
27 | KIAA1191 (UniProt Q96A73) | inactive: 0.035
28 | KPNA6 (UniProt O60684) | inactive: -0.074
29 | KIF5B (UniProt P33176) | inactive: 0.007
30 | KHDC4 (UniProt Q7Z7F0) | inactive: 0.01
31 | KDSR (UniProt Q06136) | inactive: -0.022
32 | KLC1 isoform 6 (UniProt Q07866) | inactive: 0
33 | LAMTOR4 (UniProt Q0VGL1) | inactive: -0.018
34 | LANCL1 (UniProt O43813) | inactive: 0.001
35 | LAMTOR3 (UniProt Q9UHA4) | inactive: -0.033
36 | LAP3 (UniProt P28838) | inactive: -0.102
37 | KIF15 (UniProt Q9NS87) | inactive: -0.017
38 | KEAP1 (UniProt Q14145) | inactive: -0.007
39 | KYAT3 (UniProt Q6YP21) | inactive: 0

Compound: C[C@H](C1=CC=C(C=C1)C(=O)NC2=C3C=CNC3=NC=C2)N
Test: as above
How it was run: as §1

Row | Target | log2 fold change
40 | KIF4B (UniProt Q2VIQ3) | inactive: 0.029
41 | KIF21A isoform 5 (UniProt Q7Z4S6) | inactive: 0.157
42 | KIF23 isoform 2 (UniProt Q02241) | inactive: -0.019
43 | KIF5A (UniProt Q12840) | inactive: 0.01
44 | KIF11 (UniProt P52732) | inactive: -0.03
45 | KNOP1 (UniProt Q1ED39) | inactive: 0.004
46 | KIAA0100 (UniProt Q14667) | inactive: -0.148
47 | KLHL36 (UniProt Q8N4N3) | inactive: -0.075
48 | KPNA2 (UniProt P52292) | inactive: -0.001
49 | LARP1 (UniProt Q6PKG0) | inactive: 0.034
50 | KYAT1 (UniProt Q16773) | inactive: -0.083
51 | KLHL20 (UniProt Q9Y2M5) | inactive: -0.039
52 | LAMP2 (UniProt P13473) | inactive: -0.123
53 | KIF4A (UniProt O95239) | inactive: 0.012
54 | KNSTRN (UniProt Q9Y448) | inactive: 0.065
55 | KLC4 isoform 3 (UniProt Q9NSK0) | inactive: 0.019
56 | KHK isoform 2 (UniProt P50053) | active: 0.248
57 | KLF16 (UniProt Q9BXK1) | inactive: 0
58 | KPTN (UniProt Q9Y664) | inactive: -0.097
59 | KIAA0319L (UniProt Q8IZA0) | inactive: -0.009

Row | Target | log2 fold change
60 | KIF13A isoform 4 (UniProt Q9H1H9) | inactive: -0.023
61 | KIAA1324L (UniProt A8MWY0) | inactive: -0.115
62 | KMT2D isoform 3 (UniProt O14686) | inactive: 0.015
63 | KNTC1 (UniProt P50748) | inactive: -0.034
64 | KIN (UniProt O60870) | inactive: -0.004
65 | KIAA1522 isoform 2 (UniProt Q9P206) | inactive: -0.011
66 | KIAA1191 (UniProt Q96A73) | inactive: 0.048
67 | KPNA6 (UniProt O60684) | inactive: 0.027
68 | KIF5B (UniProt P33176) | inactive: 0.051
69 | KHDC4 (UniProt Q7Z7F0) | inactive: 0.035
70 | KDSR (UniProt Q06136) | inactive: -0.074
71 | KLC1 isoform 6 (UniProt Q07866) | inactive: -0.009
72 | LAMTOR4 (UniProt Q0VGL1) | inactive: -0.08
73 | LANCL1 (UniProt O43813) | inactive: -0.036
74 | LAMTOR3 (UniProt Q9UHA4) | inactive: -0.126
75 | LAP3 (UniProt P28838) | active: -0.531
76 | KIF15 (UniProt Q9NS87) | inactive: 0
77 | KEAP1 (UniProt Q14145) | inactive: 0
78 | KYAT3 (UniProt Q6YP21) | inactive: -0.158
